Assay results reported in paper PMC8529007.
Results are given in words; binding and its absence hold for the method and conditions named. Binding seen in cells or lysates may run through a third protein. Some results given as binding are weak or reduced against the parent protein; the word gives no strength.

Sequences of proteins named here, by UniProt entry; tags and fusion partners are left off. Residues count along the entry.
UniProt P05107, residues 23-769: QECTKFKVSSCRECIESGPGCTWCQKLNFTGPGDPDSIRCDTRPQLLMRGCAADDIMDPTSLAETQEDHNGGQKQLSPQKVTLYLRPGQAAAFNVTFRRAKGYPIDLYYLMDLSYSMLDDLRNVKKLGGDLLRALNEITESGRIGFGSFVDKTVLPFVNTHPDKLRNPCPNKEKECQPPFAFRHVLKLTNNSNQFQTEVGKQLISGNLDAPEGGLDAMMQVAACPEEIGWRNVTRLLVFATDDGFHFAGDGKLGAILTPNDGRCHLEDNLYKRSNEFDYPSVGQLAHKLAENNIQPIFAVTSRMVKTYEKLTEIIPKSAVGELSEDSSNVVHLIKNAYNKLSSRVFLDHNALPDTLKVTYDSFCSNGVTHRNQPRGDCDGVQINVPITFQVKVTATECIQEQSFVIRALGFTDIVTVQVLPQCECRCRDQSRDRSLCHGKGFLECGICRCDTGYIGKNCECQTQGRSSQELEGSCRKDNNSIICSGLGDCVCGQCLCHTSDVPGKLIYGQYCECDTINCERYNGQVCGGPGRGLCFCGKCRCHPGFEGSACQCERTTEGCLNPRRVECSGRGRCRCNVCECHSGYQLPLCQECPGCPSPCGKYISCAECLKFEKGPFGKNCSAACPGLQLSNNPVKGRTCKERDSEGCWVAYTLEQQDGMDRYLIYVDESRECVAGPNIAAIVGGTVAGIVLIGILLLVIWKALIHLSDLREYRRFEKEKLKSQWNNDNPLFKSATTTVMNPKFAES
UniProt P11142: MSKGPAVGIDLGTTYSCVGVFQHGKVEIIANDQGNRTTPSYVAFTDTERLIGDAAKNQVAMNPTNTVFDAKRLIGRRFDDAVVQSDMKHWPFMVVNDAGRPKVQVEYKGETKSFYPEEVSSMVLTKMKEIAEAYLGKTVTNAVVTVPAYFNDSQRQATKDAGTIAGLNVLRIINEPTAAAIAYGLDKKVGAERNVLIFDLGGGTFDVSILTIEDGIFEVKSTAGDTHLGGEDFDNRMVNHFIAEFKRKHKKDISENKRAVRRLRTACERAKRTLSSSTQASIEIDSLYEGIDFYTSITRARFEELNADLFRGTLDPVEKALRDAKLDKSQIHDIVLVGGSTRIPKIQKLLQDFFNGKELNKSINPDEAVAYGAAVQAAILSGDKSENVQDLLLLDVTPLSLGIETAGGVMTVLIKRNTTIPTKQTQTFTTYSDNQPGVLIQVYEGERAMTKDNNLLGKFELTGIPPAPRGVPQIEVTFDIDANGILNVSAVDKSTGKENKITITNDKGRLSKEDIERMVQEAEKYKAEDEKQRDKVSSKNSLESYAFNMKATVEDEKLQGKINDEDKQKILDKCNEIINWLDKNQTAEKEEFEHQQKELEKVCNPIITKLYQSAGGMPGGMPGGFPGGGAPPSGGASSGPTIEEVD
UniProt P19474: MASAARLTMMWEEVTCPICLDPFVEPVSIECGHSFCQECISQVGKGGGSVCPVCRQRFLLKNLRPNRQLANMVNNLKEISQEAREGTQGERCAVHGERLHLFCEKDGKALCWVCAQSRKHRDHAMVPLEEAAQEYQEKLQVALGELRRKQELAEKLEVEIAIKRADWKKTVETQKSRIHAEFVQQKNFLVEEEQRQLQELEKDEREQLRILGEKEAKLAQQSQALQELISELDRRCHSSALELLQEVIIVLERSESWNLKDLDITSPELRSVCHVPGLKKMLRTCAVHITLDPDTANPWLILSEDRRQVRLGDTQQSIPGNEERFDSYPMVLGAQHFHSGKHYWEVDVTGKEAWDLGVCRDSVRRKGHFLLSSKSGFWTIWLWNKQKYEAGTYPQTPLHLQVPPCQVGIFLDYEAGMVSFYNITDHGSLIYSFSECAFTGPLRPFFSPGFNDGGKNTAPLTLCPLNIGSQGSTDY

Target: CD18 (integrin β2), dHL-60 cells (human (endogenous in dHL-60)) (UniProt P05107)
Test: co-IP; reciprocal co-IP in dHL-60 cells; Pierce Crosslink IP kit, primary antibody cross-linked to protein A/G plus agarose, precleared cytosolic fraction, overnight at 4°C

| binding | Substance |
| --- | --- |
| binds | Heat shock cognate 71 kDa protein (Hsc70), dHL-60 cells (from UniProt P11142 1-646) |
| binds | tripartite motif-containing protein 21 (TRIM21), dHL-60 cells (from UniProt P19474 1-475) |
